Measured values published in publication PMC3154509.
These are yes or no findings as the source states them, for the method shown. In cells and extracts the contact can be indirect. Some binding calls cover weakened binding; strength is not graded here.

Protein sequences, listed by entry. Tags and fused reporters are not part of them.
UniProt O60674: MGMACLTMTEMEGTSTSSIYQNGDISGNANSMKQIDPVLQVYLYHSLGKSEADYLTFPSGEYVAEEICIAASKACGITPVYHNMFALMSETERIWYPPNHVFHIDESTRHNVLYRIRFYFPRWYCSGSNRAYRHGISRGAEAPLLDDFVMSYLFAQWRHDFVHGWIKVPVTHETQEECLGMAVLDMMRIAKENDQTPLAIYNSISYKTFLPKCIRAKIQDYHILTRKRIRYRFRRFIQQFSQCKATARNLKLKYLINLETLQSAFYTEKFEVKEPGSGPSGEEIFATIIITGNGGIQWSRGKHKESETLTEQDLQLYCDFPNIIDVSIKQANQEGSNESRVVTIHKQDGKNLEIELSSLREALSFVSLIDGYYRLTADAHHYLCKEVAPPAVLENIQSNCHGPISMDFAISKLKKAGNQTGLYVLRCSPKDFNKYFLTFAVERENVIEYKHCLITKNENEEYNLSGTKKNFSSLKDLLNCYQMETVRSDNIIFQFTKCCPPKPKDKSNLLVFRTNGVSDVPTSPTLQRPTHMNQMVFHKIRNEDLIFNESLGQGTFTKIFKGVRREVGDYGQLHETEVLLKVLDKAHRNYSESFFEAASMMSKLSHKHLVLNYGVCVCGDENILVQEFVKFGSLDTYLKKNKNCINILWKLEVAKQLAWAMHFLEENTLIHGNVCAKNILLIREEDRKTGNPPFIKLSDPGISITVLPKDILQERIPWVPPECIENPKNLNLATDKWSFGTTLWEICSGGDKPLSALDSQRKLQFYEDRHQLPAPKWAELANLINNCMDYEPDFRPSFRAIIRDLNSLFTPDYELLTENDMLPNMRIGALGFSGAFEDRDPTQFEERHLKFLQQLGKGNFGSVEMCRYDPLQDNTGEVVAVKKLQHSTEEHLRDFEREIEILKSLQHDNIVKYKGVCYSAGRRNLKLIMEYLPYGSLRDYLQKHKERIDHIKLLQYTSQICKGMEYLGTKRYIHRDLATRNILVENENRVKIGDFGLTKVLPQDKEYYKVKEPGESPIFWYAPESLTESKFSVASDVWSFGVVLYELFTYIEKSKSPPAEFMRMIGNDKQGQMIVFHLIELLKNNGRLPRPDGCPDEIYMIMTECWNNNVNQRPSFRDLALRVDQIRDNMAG
UniProt Q9UQQ2: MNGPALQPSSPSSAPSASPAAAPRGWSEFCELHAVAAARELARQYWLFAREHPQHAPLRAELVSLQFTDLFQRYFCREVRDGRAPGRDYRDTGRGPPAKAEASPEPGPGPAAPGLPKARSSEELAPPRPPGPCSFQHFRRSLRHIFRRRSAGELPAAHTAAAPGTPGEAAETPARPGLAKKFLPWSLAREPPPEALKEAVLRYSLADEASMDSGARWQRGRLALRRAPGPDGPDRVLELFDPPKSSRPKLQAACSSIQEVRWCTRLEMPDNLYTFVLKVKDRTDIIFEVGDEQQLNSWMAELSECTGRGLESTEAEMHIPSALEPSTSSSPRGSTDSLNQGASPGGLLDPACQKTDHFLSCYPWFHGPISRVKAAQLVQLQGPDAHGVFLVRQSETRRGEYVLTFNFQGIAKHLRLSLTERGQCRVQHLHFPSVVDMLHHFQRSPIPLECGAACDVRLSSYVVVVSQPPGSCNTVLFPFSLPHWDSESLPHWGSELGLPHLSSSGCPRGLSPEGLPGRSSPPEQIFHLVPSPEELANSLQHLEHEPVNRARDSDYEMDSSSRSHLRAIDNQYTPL

Target: Jak2 tyrosine kinase (endogenous, M-MOK cells) (human (endogenous in M-MOK)) (UniProt O60674)
Experiment: co-IP; as a1, but cells not stimulated with TPO; anti-Jak2 immunoprecipitation, blot with anti-pentaHis; only the binder purified

- binding: binds weakly
Substance: WT Lnk R8 fusion protein (human wild-type Lnk-6×His-R8) (from UniProt Q9UQQ2 1-575)
